A unit is not stated for every read-out.
Test system: MCF10A WT and MCF10A CDH1^−/− cells
Assay: Weighted and ranked score (WRS) for hit prioritisation from six screen variables
Parameters: species or system human
Conditions: for Sum of Weighted Variables: WRS; for Sum of Weighted Variables / WRS (weighted ranked score): score 0–1; for Sum of Weighted Variables / Final Rank: Supplementary Table 2; for WRS (weighted ranked score): calculated from six variables; for Final Rank: rank by WRS among the 256 hits; for WRS rank: rank in parenthesis, among the 256 hits
Source text: To prioritise hits, a weighted and ranked score (WRS) was created for each compound. Rather than using solely an EC50 from each cell line or an extensive list of multi-parametric data from the four-staged screen, six key variables were chosen. Each variable was given a different weighting based on their predicted importance. The sum of the weighted and scored variables produced the WRS to summarise the multi-parametric data of each compound into a single number (Fig. 6). The WRS is a unique tool for hit-selection and was used in combination with a comprehensive assessment of the biological activity of each compound including non-quantifiable traits, i.e. chemical desirability of the scaffold and risks associated with structural features or synthetic accessibility to determine the final lead compounds from the four-staged screen.
Figure 6 The weighted and ranked score. Only the 256 hits entering the 11-point dose-response screens were considered. Compounds were scored using the formula: variable / max(variable) to give a score from 0–1, with 1 being the ideal score. All data was averaged between the three or two biological replicates, for single-point and 11- screens, respectively. (A) Percentage weighting of each variable. (B) Distribution of the sum of weighted and ranked variables.
Since the single point screen was assayed at only one concentration, these two variables were given a combined weighting of 20%.
As well as this, the differential at 20 μM (10% weighting), and the viability of the MCF10A WT cells at the highest concentration of 20 μM (15% weighting) were also included.

Row | SMILES | Sum of Weighted Variables | WRS (weighted ranked score) | Final Rank | WRS rank
1 | COc1ccc2nccc(Nc3cccc(C(C)=O)c3)c2c1 [SLEC-2] | 0.76 | 0.755 | 4 | 4
2 | COc1ccc2nc(C)cc(NCc3ccc(F)cc3)c2c1 [SLEC-11, N-(4-Fluorobenzyl)-6-methoxy-2-methylquinolin-4-amine] | 0.79 | 0.792 | 2 | 2
3 | COc1ccc2nc(C)cc(NCC(=O)Nc3cccc(C)c3C)c2c1 [SLEC-12] | 0.71 | 0.708 | 8 | 8
4 | CCOc1ccc2nc(C)cc(SCC(O)C(=O)O)c2c1 (stereo not shown) [SLEC-20] | 0.73 | 0.734 | 6 | 6

Source: PMC6715681, “A high-throughput screen to identify novel synthetic lethal compounds for the treatment of E-cadherin-deficient cells” (Scientific Reports, 2019)
